Assay results: PMC6730887, “FKBP51 and FKBP12.6—Novel and tight interactors of Glomulin” (PLoS ONE, 2019)
Read-outs that look alike come from different tables or passages of the source. These are yes or no findings as the source states them, for the method shown. Some entries that bind do so weakly or less than the wild type. Sequences can lack the tags named with a protein. Each block holds one molecule with its values, some of them ahead of it.

Sequences of proteins named here, by UniProt entry; tags and fusion partners are left off.
UniProt P68106: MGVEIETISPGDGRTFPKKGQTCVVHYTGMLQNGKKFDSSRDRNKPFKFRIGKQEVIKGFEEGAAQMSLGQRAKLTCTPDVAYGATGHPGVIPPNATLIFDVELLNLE

Tests used:
GST-Glmn (Glomulin) [1] = biological target: T1, GST-Glmn (Glomulin) (UniProt Q92990); assay: AlphaScreen or HTRF; competitive HTRF: unlabelled FKBP titrated against 30 nM FKBP51FK1-5-MF and 30 nM GST-Glmn with Anti GST-Tb cryptate; 20 mM HEPES, 5% glycerol, 20 mM NaCl, 10 mM DTT, pH 8.0; room temperature, 1 h; both purified
T1 sequence: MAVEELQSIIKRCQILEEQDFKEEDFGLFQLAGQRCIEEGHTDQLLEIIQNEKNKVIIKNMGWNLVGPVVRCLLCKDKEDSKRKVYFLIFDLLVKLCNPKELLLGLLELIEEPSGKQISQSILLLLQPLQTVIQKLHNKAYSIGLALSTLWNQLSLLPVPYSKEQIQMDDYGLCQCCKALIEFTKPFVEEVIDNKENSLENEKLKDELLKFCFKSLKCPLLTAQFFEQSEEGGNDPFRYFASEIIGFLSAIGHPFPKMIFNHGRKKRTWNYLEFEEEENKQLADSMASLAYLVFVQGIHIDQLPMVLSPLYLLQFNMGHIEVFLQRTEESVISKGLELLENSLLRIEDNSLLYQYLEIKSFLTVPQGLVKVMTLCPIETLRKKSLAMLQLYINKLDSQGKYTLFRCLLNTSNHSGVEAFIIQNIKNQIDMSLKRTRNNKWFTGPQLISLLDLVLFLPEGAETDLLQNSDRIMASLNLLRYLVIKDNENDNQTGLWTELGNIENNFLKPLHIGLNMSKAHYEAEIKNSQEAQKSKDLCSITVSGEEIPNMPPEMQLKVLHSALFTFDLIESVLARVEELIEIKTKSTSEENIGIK

GST-Glmn (Glomulin) [2] = biological target: T1, GST-Glmn (Glomulin); assay: as above; remark: listed apart in the source

binding (GST-Glmn (Glomulin) [1]): binds weakly
Molecule: His-FKBP12 (from UniProt P62942 1-108)

binding (GST-Glmn (Glomulin) [1]): binds
Molecule: His-FKBP12.6 (from UniProt P68106 1-108)

B1: His-FKBP51FK1 (aa16-140) (domain or fragment)
chain: ATVAEQGEDITSKKDRGVLKIVKRVGNGEETPMIGDKVYVHYKGKLSNGKKFDSSHDRNEPFVFSLGKGQVIKAWDIGVATMKKGEICHLLCKPEYAYGSAGSLPKIPSNATLFFEIELLDFKGE
binding (GST-Glmn (Glomulin) [2]): binds

B2: His-FKBP51FK1 (1-140) (domain or fragment)
chain: MTTDEGAKNNEESPTATVAEQGEDITSKKDRGVLKIVKRVGNGEETPMIGDKVYVHYKGKLSNGKKFDSSHDRNEPFVFSLGKGQVIKAWDIGVATMKKGEICHLLCKPEYAYGSAGSLPKIPSNATLFFEIELLDFKGE
binding (GST-Glmn (Glomulin) [2]): binds
